Article PMC7819943, “Rice protein-binding microarrays: a tool to detect cis-acting elements near promoter regions in rice”
The other results are listed elsewhere or left out.

The sequences below were run against T1, OsSMF1 (Oryza sativa, UniProt Q6ZLB0 1-436) (assay: protein-binding microarray (RPBM); PBS, 2% BSA, 51.3 ng/ul salmon testes DNA, 50 uM zinc acetate, 200 nM TF, 25 C, 1 h; high values mean tight binding). Details: protein: recombinant; tags: N-terminal polyhistidine and DsRed monomer fusion (pET32a); chain copies: 2; label: CyDye5-dUTP incorporated in the synthesized complementary strand; 3' TTTTT single-stranded linker to array surface; dsDNA, one strand shown.
T1 sequence: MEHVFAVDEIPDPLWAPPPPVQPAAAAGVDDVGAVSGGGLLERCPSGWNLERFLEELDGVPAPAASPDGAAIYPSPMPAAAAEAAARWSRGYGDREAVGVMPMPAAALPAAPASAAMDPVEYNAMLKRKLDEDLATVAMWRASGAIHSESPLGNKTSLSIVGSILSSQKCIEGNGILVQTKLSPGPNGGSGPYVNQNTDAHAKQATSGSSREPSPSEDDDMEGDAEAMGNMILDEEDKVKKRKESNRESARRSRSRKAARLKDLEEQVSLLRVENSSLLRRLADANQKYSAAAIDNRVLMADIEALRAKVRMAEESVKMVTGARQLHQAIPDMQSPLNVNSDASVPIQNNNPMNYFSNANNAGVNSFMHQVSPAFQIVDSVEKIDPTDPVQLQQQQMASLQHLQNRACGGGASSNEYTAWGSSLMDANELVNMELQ
Method in brief: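 Binding signal is defined as the fluorescence intensity of each feature in arbitrary units, read on an Axon 4000B scanner. Transcription factors with N-terminal polyhistidine and DsRed fusions came from E. coli BL21-CodonPlus and were purified on Ni–NTA. They were incubated at 200 nM for 1 h at 25 °C on a custom Agilent array that had been made double-stranded with Cy5-dUTP, with 50 µM zinc acetate present, and the array was washed.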

Sequence | binding signal
ACTATACCGTCTAAAGATCCACTTGCAAAGATTTTCCAAGCGGAGTCACCTAGTGCAG | 18800 fluorescence intensity (a.u.)
CTCTCACGGTGCAAGACGTGGAGCGTTATCTCGCGTGGCCCGGAGTCACCTAGTGCAG | 3940 fluorescence intensity (a.u.)
GTCGTTTCTCTCTACCACGTGTACAGCAGCAGGTCAGCTGCGGAGTCACCTAGTGCAG | 9350 fluorescence intensity (a.u.)
AAGTACGGTCAACCTACCACGTTAGAGAAAACCGTTTTCCCGGAGTCACCTAGTGCAG | 3270 fluorescence intensity (a.u.)
CCGCCGACATGGACGGCCGCCATGGCTCCTCGTTGATGGCCGGAGTCACCTAGTGCAG | 3410 fluorescence intensity (a.u.)
AGCAATAGTGGGACGGTAGATTGGCTGTCATCGTCACTACCGGAGTCACCTAGTGCAG | 4010 fluorescence intensity (a.u.)
TTGTTTACGTTTCGGCATCTACCAGACGTGTCCTCGACGCCGGAGTCACCTAGTGCAG | 4780 fluorescence intensity (a.u.)
GGATGCTGACGTTGTTCGCACCAGATTTCTGGACGCTGTCCGGAGTCACCTAGTGCAG | 5860 fluorescence intensity (a.u.)
CGTCCAGGCATGTGTTGGCAATCTTATCCCCAACGTTTCCCGGAGTCACCTAGTGCAG | 3160 fluorescence intensity (a.u.)
TTAGCCGACTAATTACGAAATGACACGTGTCAAGTTACAACGGAGTCACCTAGTGCAG | 16800 fluorescence intensity (a.u.)
GAAACTGCTCTTCCTACCCTCGCGTCCTTTGGCCTCGTCTCGGAGTCACCTAGTGCAG | 3440 fluorescence intensity (a.u.)
CCGAGCGGCAAATTAATGTATGCCCGGCTTGTTGCGCCTACGGAGTCACCTAGTGCAG | 3380 fluorescence intensity (a.u.)
TTACTTGGCAGTATTCGGCATCTGAATATAGTGTCCCTTTCGGAGTCACCTAGTGCAG | 26700 fluorescence intensity (a.u.)
AGGATGCTACAAATTTCTTCGCTGTCAGATGTGATTGCCGCGGAGTCACCTAGTGCAG | 15500 fluorescence intensity (a.u.)
CTTCAGTTATGTTAATTACATGTCATTTGTTTTGTTACAACGGAGTCACCTAGTGCAG | 4920 fluorescence intensity (a.u.)
GCGCCGCGTCTGCTTTTGTCATATGATGCACGATTGTGCTCGGAGTCACCTAGTGCAG | 3180 fluorescence intensity (a.u.)
CGAGCACCTCGCCCTCCAGCCACGCCACGGGGAGAAGATGCGGAGTCACCTAGTGCAG | 5010 fluorescence intensity (a.u.)
TGTTCGACATGGCAGCTGAGTCAGCGTGGGACCCACGTGGCGGAGTCACCTAGTGCAG | 16000 fluorescence intensity (a.u.)
AAATTTGGAGATCGATTTTGCAATCTACAATGTGCCGATTCGGAGTCACCTAGTGCAG | 3330 fluorescence intensity (a.u.)
GCTGATTAGACTATGTCAATGATCCATGTCATCGAAATCCCGGAGTCACCTAGTGCAG | 5120 fluorescence intensity (a.u.)
CATCAATGATATTAGAATTATGATATATGCGATATCACATCGGAGTCACCTAGTGCAG | 23800 fluorescence intensity (a.u.)

Sequence | binding signal
GCTGCCAGCTCTCACTTTCTAGATAGCTCGAGGAGGTCAGCGGAGTCACCTAGTGCAG | 3390 fluorescence intensity (a.u.)
ACTGTCCTAATATCCTTTGTCACGAACGGTCGCCAAAGCGCGGAGTCACCTAGTGCAG | 3170 fluorescence intensity (a.u.)
GCATATTGGCATGTATAGCGAAGCCCTAAACTATGACCCTCGGAGTCACCTAGTGCAG | 3680 fluorescence intensity (a.u.)
CGGTCGGCTGCCAGCTAAGCCGAGAGCAAACATTTCGTCACGGAGTCACCTAGTGCAG | 4320 fluorescence intensity (a.u.)
CCGCGCACCCCAGAATGGCACCGCCACGTGTCAGCTGAAGCGGAGTCACCTAGTGCAG | 26300 fluorescence intensity (a.u.)
TGAGGCCAATAGCAGTGCAGGGCACGCTACGCGTGTCTCTCGGAGTCACCTAGTGCAG | 3220 fluorescence intensity (a.u.)
CAGTGCCAGTTGACATAGCGCTGAGGTGTCTAAGTTCAGCCGGAGTCACCTAGTGCAG | 5690 fluorescence intensity (a.u.)
TTTTACAAGTTTTAGGTACTTTCCTTTTATAATTTCAGATCGGAGTCACCTAGTGCAG | 16500 fluorescence intensity (a.u.)
CGTTCCGCCGCTCCGACCTCCGCCTCCTCCTCGGCGTCATCGGAGTCACCTAGTGCAG | 4160 fluorescence intensity (a.u.)
CCCCGCCCCATGCGCCGTGTCCACACACACACCAAGCCGCCGGAGTCACCTAGTGCAG | 3310 fluorescence intensity (a.u.)
ATCCTATTATGATGGTGGCATTCTACCGAAACGGCGACGACGGAGTCACCTAGTGCAG | 4460 fluorescence intensity (a.u.)
ATCTAAGGAAACTGCTAATGATGTCTTTGGACTGCCAGATCGGAGTCACCTAGTGCAG | 3520 fluorescence intensity (a.u.)
GCCAAGTTCGCGACGCCTCCTCCGGCGCCCACCCGTGGCGCGGAGTCACCTAGTGCAG | 3190 fluorescence intensity (a.u.)
TCCAACTCTTTTAAGCTGAACAGGTAGTCATCAGGTTACCCGGAGTCACCTAGTGCAG | 3750 fluorescence intensity (a.u.)
ATTTTCCATGCTGAGATGGACATGCTCCAACTGACTAGGCCGGAGTCACCTAGTGCAG | 4120 fluorescence intensity (a.u.)
ATCACTGTTTCGGCCGGCTGCACCGCAGGTCCGCAGCCGCCGGAGTCACCTAGTGCAG | 15100 fluorescence intensity (a.u.)
CAAAACCACAATAAGGTCGCCACGTAGCGCCCGAGCGGCACGGAGTCACCTAGTGCAG | 4030 fluorescence intensity (a.u.)
GGTCGCCCGCACGGCTTCGCTGCCGTGGCGGATCCAGTCCCGGAGTCACCTAGTGCAG | 5850 fluorescence intensity (a.u.)
TATGTACCTTTTCCACAGAACCCTCTACTGTGCCAGGTCACGGAGTCACCTAGTGCAG | 15600 fluorescence intensity (a.u.)
GCCGCCCCGGTGATGACGCCGACGCCCGTCGTGACGCGCGCGGAGTCACCTAGTGCAG | 3740 fluorescence intensity (a.u.)
GGTTGCTGGCTGCTTAGTGGCGGATGGCGACGGCACAGCGCGGAGTCACCTAGTGCAG | 3490 fluorescence intensity (a.u.)

Some values from the entries so far.
TATGTACCTTTTCCACAGAACCCTCTACTGTGCCAGGTCACGGAGTCACCTAGTGCAG – binding signal: 15600 fluorescence intensity (a.u.)
CCGAGCGGCAAATTAATGTATGCCCGGCTTGTTGCGCCTACGGAGTCACCTAGTGCAG – binding signal: 3380 fluorescence intensity (a.u.)
